# Source: PubChem BioAssay AID1508597 (Cure First, 2020)
# Purpose: 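Survival screen with siRNA in ovarian cancer cells derived from patients, with or without rucaparib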 (primary screen)
# System: human ovarian carcinoma lines grown from tumours: OCI-P5x (papillary serous) and OCI-C5x (clear cell)
# Reagents: siRNA pool against human genes, 1.25 pmol siRNA per well
# Timing: 72 h or 96 h, depending on the cell culture
# Challenge: rucaparib 20 µM (about IC30) or vehicle, present until read-out
# Rucaparib or vehicle: Vehicle
# Cell line: OCI-C5x (clear cell)
# Detection: 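Luminescent ATP-based viability assay read 72 or 96 h after transfection, depending on culture, given as normalised percent viability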
# Direction: viability, normalised: higher = more viable cells remaining
# Active means: 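Active when normalised viability falls below 80 percent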
# Calls: active = viability under 80%; inactive = viability 80% or more
# This is a random part of the about 2,100 reagents, in one setting of the screen. 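Calls flag viability under 80% in either arm, not effects specific to rucaparib; the reference for percent is not stated.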 No sequences are given here. The record does not give: the 100% reference.
target,technical replicate,"viability, normalised (%)",activity call
PLCD3 (GeneID 113026),1,65.1,active
PLCD3 (GeneID 113026),2,56.3,active
PLCD3 (GeneID 113026),3,56.8,active
UBR5 (GeneID 51366),1,56.9,active
UBR5 (GeneID 51366),2,62.9,active
UBR5 (GeneID 51366),3,60.6,active
ACE (GeneID 1636),1,60.4,active
ACE (GeneID 1636),2,57.2,active
ACE (GeneID 1636),3,44.6,active
CDC7 (GeneID 8317),1,74.5,active
CDC7 (GeneID 8317),2,63.5,active
CDC7 (GeneID 8317),3,58.7,active
ELP3 (GeneID 55140),1,41.3,active
ELP3 (GeneID 55140),2,58.2,active
ELP3 (GeneID 55140),3,52.1,active
PAN3 (GeneID 255967),1,95.7,inactive
PAN3 (GeneID 255967),2,58.3,active
PAN3 (GeneID 255967),3,48,active
RIC8A (GeneID 60626),1,40.5,active
RIC8A (GeneID 60626),2,37.7,active
RIC8A (GeneID 60626),3,50.2,active
ZCWPW1 (GeneID 55063),1,33.9,active
ZCWPW1 (GeneID 55063),2,32.6,active
ZCWPW1 (GeneID 55063),3,41.7,active
GDPD4 (GeneID 220032),1,9.52,active
GDPD4 (GeneID 220032),2,38,active
GDPD4 (GeneID 220032),3,35.9,active
DDX19A (GeneID 55308),1,46.5,active
DDX19A (GeneID 55308),2,57.1,active
DDX19A (GeneID 55308),3,66,active
ARID3B (GeneID 10620),1,53.4,active
ARID3B (GeneID 10620),2,40.1,active
ARID3B (GeneID 10620),3,35.8,active
SETD3 (GeneID 84193),1,44.5,active
SETD3 (GeneID 84193),2,37.4,active
SETD3 (GeneID 84193),3,39.2,active
USP3 (GeneID 9960),1,51.4,active
USP3 (GeneID 9960),2,40.8,active
USP3 (GeneID 9960),3,30,active

Ordered by “viability, normalised (%)” (highest first): 3 of the entries above
target,technical replicate,"viability, normalised (%)",activity call
UBR5 (GeneID 51366),2,62.9,active
UBR5 (GeneID 51366),3,60.6,active
ACE (GeneID 1636),1,60.4,active
